Reference: PubChem BioAssay AID504764 (Drosophila RNAi Screening Center, 2011)

Test: 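Knock-downs that raise or lower a Notch target reporter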 (primary screen)
Cell system: Drosophila Kc167 cells
Reagents: long dsRNA against Drosophila genes
Duration: about 5 days (4 days dsRNA, then 24 h after transfection)
Conditions: transfection of constitutively active membrane-tethered Notch lacking the extracellular domain, read 24 h later
Read-out: 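Firefly luciferase from an E(spl)m3 reporter with active Notch, plus control-promoter and uninduced reporter wells for normalisation; unnormalised counts, duplicate wells a and b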
Scale: induced reporter light, run 1, well a and induced reporter light, run 1, well b: higher = more light from the Notch target reporter with active Notch; control promoter light, run 1, well a and control promoter light, run 1, well b: higher = more light from the viral control promoter (cell number, transfection, viability); uninduced reporter light, run 1, well a: higher = more light from the Notch target reporter without active Notch
Call rule: 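Hit if the duplicate-averaged log2 ratio of induced to control-promoter light gives a plate-wise z beyond ±2, or induced to uninduced beyond ±1.8; weak-control or discordant-duplicate wells dropped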
Calls: active = modifier hit (raised or lowered Notch signal); inactive = not a hit
In all, the deposit lists about 22,000 reagents; shown is a random part of those with a known target gene and a result. Of all reagents, 403 (1.9%) got an active call. 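Unnormalised raw counts per well; ratio z-scores behind the hit calls and whether each hit raises or lowers signal are not deposited.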 The numbers tell different reagents against one gene apart. The record does not give: the amount of reagent.

The opening 2 entries, ahead of the listing:
Gene	dsRNA no.	induced reporter light, run 1, well a	induced reporter light, run 1, well b	control promoter light, run 1, well a	control promoter light, run 1, well b	uninduced reporter light, run 1, well a	Outcome
CG1971	1	1.37e5	1.98e5	2.30e5	2.20e5	13920	inactive
CG8034	1	1.04e5	1.12e5	1.16e5	80500	10445	inactive

The list itself, repeating the preview:
Gene	dsRNA no.	induced reporter light, run 1, well a	induced reporter light, run 1, well b	control promoter light, run 1, well a	control promoter light, run 1, well b	uninduced reporter light, run 1, well a	Outcome
CG1971	1	1.37e5	1.98e5	2.30e5	2.20e5	13920	inactive
CG8034	1	1.04e5	1.12e5	1.16e5	80500	10445	inactive
CG10588	1	41125	37585	45045	31480	3892	inactive
CG15317	1	98285	1.08e5	1.31e5	1.60e5	7400	inactive
CG32645	1	1.28e5	1.32e5	1.89e5	2.03e5	9305	inactive
CG32645	2	1.26e5	1.16e5	2.60e5	2.34e5	8265	inactive
Rab11	1	1.94e5	1.95e5	1.96e5	2.10e5	14400	inactive
cocoon	1	1.35e5	1.17e5	2.36e5	2.15e5	7265	inactive
DnaJ-1	1	65935	69240	88290	38310	10395	active
alpha-Est4aPsi	1	1.31e5	1.71e5	1.35e5	1.85e5	9795	inactive
nht	1	1.46e5	1.66e5	1.50e5	1.75e5	12088	inactive
CG14324	1	2.42e5	2.15e5	2.27e5	2.14e5	20738	inactive
ssp5	1	1.50e5	1.39e5	97170	94370	10115	inactive
GstE11	1	55055	48325	71220	67045	4025	active
CG2246	1	1.72e5	1.73e5	2.21e5	2.27e5	12015	inactive
CG2611	1	1.61e5	1.60e5	1.41e5	1.81e5	12075	inactive
CG15715	1	1.82e5	1.64e5	1.79e5	1.97e5	10715	inactive
Ntmt	1	1.80e5	1.77e5	1.76e5	2.03e5	16170	inactive
CG32196	1	1.77e5	1.96e5	2.77e5	2.67e5	19115	inactive
Ir56d	1	6750	6265	9360	11395	1525	inactive
